In US20080311656A1, “Meiosis arrest in oocytes in vitro” (Novo Nordisk A/S, priority 2002, published 2008):

Test system: Human oocytes (COCs)
Assay: Light and electron microscopy of oocytes arrested by DDMP
Assay type: cell-based
Protocol: During evaluation at 24 hours and 48 hours culture, part of the oocytes with and without DDMP were fixed for EM analysis.
A total of 48 oocytes (4 at time of retrieval, 21 after 24 hours, 20 after 48 hours and 3 after 72 hours culture) were fixed in glutaraldehyde 2.5% in cacodylate buffer at pH 7.3 for at least 2 hours at 4° C. at time 0 h, 24 hours and 48 hours of maturation. All oocytes were embedded individually. Afterwards, they were postfixed in OsO4 1% in H2O for 30 min, stained with uranyl acetate 2% in veronal buffer for 60 min, dehydrated through graded alcohols, embedded in SPURR (Taab; Bodson, Liège, Belgium) and left to polymerize overnight at 70° C.
Semithin sections of 0.5 μm and ultrathin sections of 75 nm were made at approximately 30 levels (range 15-35). The semithin sections were mounted on glass slides and stained with toluidine blue for light microscopical guidance. […]
In order to analyse the effect of PDE 3 inhibition on nuclear and cytoplasm organization, ultrastructural observation was performed at the different culture times in oocytes arrested or not by DDMP. The oocytes analyzed did originate from follicles with diameter between 8-12 mm.

`COc1cc2cc(C3=NNC(=O)CC3C)sc2cc1OC` (centres unmarked) [DDMP, 4,5-dihydro-6-(5,6-dimethoxybenzo[b]thien-2-yl)-5-methyl-3(2H)-pyridazinone] was tested, and the “nuclear morphology of GV oocytes (nuclear membrane)” value (DDMP for 72 hours) was “nuclear membrane remained intact and unfolded” and the “migration of organelles in the GV-stage oocytes” value (prolonged nuclear arrest, organelles start to dissociate after 48 hours in DDMP culture) was “seemed to affect the migration of organelles”.
